Reference: PubChem BioAssay AID2551 (National Center for Advancing Translational Sciences (NCATS), 2010)
About 17,000 (5.5%) of roughly 310,000 compounds were called active. Inconclusive means that the source gave no clear call. Such entries were picked first, then a sample of the others. Calls come from the whole dose curve; as a rule, active = well fitted inhibition curve with a large enough effect; inconclusive = small, poorly fitted or top-dose-only effect, or effect the other way; inactive = no such curve, though single readings can be large or run the other way. Where the call is inconclusive, the potency comes from a doubtful curve fit.

Chains of the proteins cited; added tags and fusions are not shown. Lines headed by an entry give the natural chain unless they say otherwise; changes in a name come on top.
UniProt P51450: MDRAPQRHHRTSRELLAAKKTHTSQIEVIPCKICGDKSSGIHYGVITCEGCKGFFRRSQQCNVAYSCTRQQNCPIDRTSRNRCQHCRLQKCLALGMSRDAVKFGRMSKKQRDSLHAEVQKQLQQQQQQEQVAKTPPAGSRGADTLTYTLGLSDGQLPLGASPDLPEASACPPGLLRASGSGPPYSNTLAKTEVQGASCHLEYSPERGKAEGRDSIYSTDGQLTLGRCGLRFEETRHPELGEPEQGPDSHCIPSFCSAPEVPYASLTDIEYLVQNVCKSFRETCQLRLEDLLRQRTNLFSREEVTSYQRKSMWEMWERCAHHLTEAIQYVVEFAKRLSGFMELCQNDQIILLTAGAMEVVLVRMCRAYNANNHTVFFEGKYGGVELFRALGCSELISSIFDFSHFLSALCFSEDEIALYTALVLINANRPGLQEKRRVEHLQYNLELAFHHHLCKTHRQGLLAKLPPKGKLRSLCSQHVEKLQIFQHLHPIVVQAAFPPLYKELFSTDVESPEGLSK

target: Nuclear receptor ROR-gamma (Mus musculus) (UniProt P51450); test: qHTS for inhibitors of ROR gamma transcriptional activity; conditions: Drosophila S2 Gal4-RORgamma UAS-luciferase reporter, 20 h; activity change, negative = inhibition: at 53.6 µM (top of the series); note: nearly all actives have a fitted effect of over 60% in size
How it was run: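 ROR gamma transcriptional activity was tracked as Gal4-UAS luciferase output in stably transfected Drosophila Schneider cells, with compound added 1 hr before 700 uM copper sulfate induction and a 20 hr ambient-temperature incubation.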
% is set by controls: 0 for no effect and ±100 for the full control effect; potency is the fitted concentration of half-maximal effect.

Potency, inconclusive:
CC(=O)Nc1cc2nn(-c3ccccc3)nc2cc1C 17.8 µM [inhibitor, single point], Cc1c(NC(=O)c2cc3c(s2)CCCC3)c(=O)n(-c2ccccc2)n1C 11.2 µM [activator, partial curve], O=C(CN1CCCN(S(=O)(=O)c2ccc(F)cc2)CC1)Nc1cccc(F)c1 12.6 µM [activator, single point], COC(=O)C(=Cc1ccccc1[N+](=O)[O-])C(=O)OC 17.8 µM [inhibitor, single point], CCc1ccc2nc(N(CCCN(C)C)C(=O)c3ccc(S(=O)(=O)N4CCc5ccccc5C4)cc3)sc2c1 35.5 µM [inhibitor, single point], O=C(NCCc1ccccn1)c1cccc(S(=O)(=O)N2CCc3ccccc32)c1 6.31 µM [inhibitor, single point], COc1ccc(CCC(=O)Nc2ccc3c(c2)OCO3)cc1 0.501 µM [activator, single point], CN(C)S(=O)(=O)c1ccc(NC(=O)c2ccc([N+](=O)[O-])cc2)cc1 11.2 µM [activator, single point], COCCn1c(=O)c(-c2cccc(C#N)c2)nc2cnc(Oc3ccc(OC)cc3)nc21 12.6 µM [activator, single point], CC1=CC(C)(C)N=C(Nc2ccc(C)cc2)S1 35.5 µM [inhibitor, single point], COc1ccccc1NC(=O)Cn1nc(-c2ccc(Cl)cc2)c2ccccc2c1=O 17.8 µM [activator, single point], COc1ccc(-c2cc(-c3ccccc3)c(C#N)c(S(C)=O)n2)cc1 (stereo not given) 20 µM [inhibitor, partial curve, poor fit]

Potency, active:
COc1cc(C(=O)Nc2ccc(-c3nc4cc(C)ccc4o3)c(O)c2)cc(OC)c1OC 3.55 µM, S=c1[nH]nc(-c2ccncc2)n1/N=C/c1cccc(Cl)c1 4.47 µM, S=C(N/N=C/c1ccc2ncccc2c1)Nc1cccnc1 4.47 µM, N#CC(c1ccccc1)c1ccc2c(C(F)(F)F)cc(C(F)(F)F)nc2n1 (stereo not given) 11.2 µM

Activity change, negative = inhibition, inactive:
CCOc1ccc2c(c1)/C(=N/N1C(=O)c3ccccc3C1=O)C(=O)N2 -9.12%, Clc1cccc(-c2cc3nc4c(c(N5CCNCC5)n3n2)CCCC4)c1 -9.12%, CCCCOc1ccc(-c2cc(C(F)(F)F)c(C#N)c(SCC(=O)O)n2)cc1 14.4%, c1cnc(N2CCN(c3ccc4ccccc4n3)CC2)nc1 -20.4%
